Taken from: PubChem BioAssay AID652259 (Drosophila RNAi Screening Center, 2013)

- Aim: 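Knock-downs that push a Wingless-driven reporter up or down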 (primary screen)
- Cell system: Drosophila clone 8 imaginal disc epithelial cells
- Knock-down reagent: long dsRNA against Drosophila genes
- Challenge: pathway stimulated by co-transfected Wingless expression plasmid
- Measurement: 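Dual luciferase reads per well after Wingless plasmid stimulation: reporter firefly light and Renilla control light; activity is firefly divided by Renilla, a ratio not deposited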
- Direction: firefly reporter light: higher = more Wg reporter light, before normalisation; Renilla control light: higher = more transfected or surviving cells
- Call rule: 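Strong candidates differ from their plate mean by at least two out of four per-plate statistical tests; weak candidates meet just one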
- Meaning of the calls: active = candidate regulator (raises or lowers reporter); inactive = not a candidate
In all, the deposit lists about 22,000 reagents; below is an unselected part of those with a known target gene and a result. Over the whole deposit, 233 (1.1%) got an active call. 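Light values are raw, unnormalised plate reads; the ratio scores behind the reporter calls were not deposited.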 A plus sign joins genes that one reagent is predicted to hit. Not given: the amount of reagent, the time to read-out, the dose of the treatment.

Target gene	dsRNA	firefly reporter light, replicate 1	firefly reporter light, replicate 2	Renilla control light, replicate 1	Renilla control light, replicate 2	Call
CG9281	DRSC20179	1537	6172	1117	2658	inactive
CG6136	DRSC15975	7585		2954		inactive
raw	DRSC03599	2609	5356	725	2583	inactive
raw	DRSC03600	1563	4048	544	1750	inactive
Gld	DRSC12595	10224		3924		inactive
Jon44E	DRSC07216	2099	5196	656	2171	inactive
Acsf2	DRSC02172	2625	10648	1130	2903	inactive
CG7149	DRSC03016	12400		6092		inactive
Gprk2	DRSC16682	1159	3177	666	1072	inactive
CG15480	DRSC02490	2816	8293	1605	3596	inactive
Smox	DRSC18716	25281		9672		inactive
CG8777	DRSC07263	7627		2256		inactive
ND1 (retired record)	DRSC21273	17114		11285		inactive
Acp36DE	DRSC01860	3379	7128	994	3239	inactive
Vm26Aa	DRSC03472	2320	9653	795	2762	inactive
CG14052	DRSC17907	34596		18231		inactive
CG14052	DRSC18192	41664		16274		inactive
CG3335	DRSC10358	6176		2763		inactive
CG31445	DRSC14443	3084	3296	875	1590	inactive
PPO3	DRSC04325	8893		3197		inactive
CaMKI	DRSC17162	2178	7990	919	2976	inactive
Smyd4-3	DRSC07041	7922		2329		inactive
CG7309	DRSC03045	3299	8517	1191	4621	inactive
APC7	DRSC17937	2547	4545	816	1972	inactive
CG6962	DRSC16153	5574		1872		inactive
CG13028	DRSC09908	9588		3962		inactive
CG10853	DRSC08164	7940		3109		inactive
seq	DRSC06863	7798		1443		inactive
Ugt307A1	DRSC02138	1932	6624	876	3156	inactive
tomboy40	DRSC04918	17876		4552		inactive
CG33655	DRSC03858	15462		8528		inactive
CG12003	DRSC08214	5787		2864		inactive
CG8584	DRSC07217	2663	6185	732	2230	inactive
CG9205	DRSC08642	12402		4267		inactive
MtnC	DRSC22879	5.43e5	5.81e5	2.36e5	1.40e5	inactive
trem	DRSC15575	16870		4312		inactive
CG43861	DRSC02170	3181	7080	635	2941	inactive
CG43861	DRSC02308	2016	7464	557	2295	inactive
yrt	DRSC16559	7513		2758		inactive
Burs	DRSC14595	31622		5004		inactive
Uch	DRSC00797	11176		2522		inactive
CG1896	DRSC15397	2219	4250	978	1435	inactive
CG9806	DRSC18444	15771		8672		inactive
mxt	DRSC00551	18368		2917		inactive
mus81	DRSC18180	23885		16576		inactive
mus81	DRSC18644	19448		14114		inactive
Pde8	DRSC04503	13600		3884		inactive
CG43367 + asRNA:CR32252	DRSC21715	5.20e5	4.58e5	2.65e5	1.40e5	inactive
Ntf-2	DRSC20552	5003	11116	839	3104	inactive
CG4983	DRSC02799	3456		1715		inactive
CG10918	DRSC20472	23911		11893		inactive
Obp56i	DRSC05812	15986		13730		inactive
Peritrophin-A	DRSC20570	2896	10528	1386	3895	inactive
Ogdh	DRSC09854	9000		4326		inactive
Ogdh	DRSC09855	9045		3336		inactive
CG14440	DRSC17933	18114		5194		inactive
trk	DRSC03625	3878	4916	969	2668	inactive
CG13786	DRSC02289	2914	6137	840	2502	inactive
Sgt	DRSC02812	8960		2181		inactive
pkaap	DRSC01925	3297	4195	1286	2307	inactive
Ubc84D	DRSC12610	12291		3621		inactive
CG9308	DRSC04539	2465	5848	765	2536	inactive
Edc3	DRSC10620	5040		2501		inactive
Smyd4-2	DRSC10126	8153		2470		inactive
mEFG1	DRSC02758	1664	4100	723	1536	inactive
cato	DRSC07589	5686		2313		inactive
Swt1	DRSC20028	2436	5232	902	1936	inactive
Ids	DRSC08222	7868		4055		inactive
CDase	DRSC14932	1113	4377	784	960	inactive
CG33155 + mRpL53	DRSC05461	18445		12000		inactive
Pak3	DRSC15017	2455	2916	1148	1625	inactive
CG33262	DRSC22893	4.83e5	5.88e5	2.08e5	1.98e5	inactive
dec	DRSC18759	32290		17280		inactive
dec	DRSC21477	2.76e5	3.31e5	1.76e5	1.41e5	inactive

Targets listed so far whose target name begins with M or m:
Target gene	dsRNA	firefly reporter light, replicate 1	firefly reporter light, replicate 2	Renilla control light, replicate 1	Renilla control light, replicate 2	Call
MtnC	DRSC22879	5.43e5	5.81e5	2.36e5	1.40e5	inactive
mxt	DRSC00551	18368		2917		inactive
mus81	DRSC18180	23885		16576		inactive
mus81	DRSC18644	19448		14114		inactive
mEFG1	DRSC02758	1664	4100	723	1536	inactive
